For two molecules, binding results are on record in paper PMC8611090.

By UniProt entry, the sequences of proteins in these tests, tags left out.
UniProt O88990: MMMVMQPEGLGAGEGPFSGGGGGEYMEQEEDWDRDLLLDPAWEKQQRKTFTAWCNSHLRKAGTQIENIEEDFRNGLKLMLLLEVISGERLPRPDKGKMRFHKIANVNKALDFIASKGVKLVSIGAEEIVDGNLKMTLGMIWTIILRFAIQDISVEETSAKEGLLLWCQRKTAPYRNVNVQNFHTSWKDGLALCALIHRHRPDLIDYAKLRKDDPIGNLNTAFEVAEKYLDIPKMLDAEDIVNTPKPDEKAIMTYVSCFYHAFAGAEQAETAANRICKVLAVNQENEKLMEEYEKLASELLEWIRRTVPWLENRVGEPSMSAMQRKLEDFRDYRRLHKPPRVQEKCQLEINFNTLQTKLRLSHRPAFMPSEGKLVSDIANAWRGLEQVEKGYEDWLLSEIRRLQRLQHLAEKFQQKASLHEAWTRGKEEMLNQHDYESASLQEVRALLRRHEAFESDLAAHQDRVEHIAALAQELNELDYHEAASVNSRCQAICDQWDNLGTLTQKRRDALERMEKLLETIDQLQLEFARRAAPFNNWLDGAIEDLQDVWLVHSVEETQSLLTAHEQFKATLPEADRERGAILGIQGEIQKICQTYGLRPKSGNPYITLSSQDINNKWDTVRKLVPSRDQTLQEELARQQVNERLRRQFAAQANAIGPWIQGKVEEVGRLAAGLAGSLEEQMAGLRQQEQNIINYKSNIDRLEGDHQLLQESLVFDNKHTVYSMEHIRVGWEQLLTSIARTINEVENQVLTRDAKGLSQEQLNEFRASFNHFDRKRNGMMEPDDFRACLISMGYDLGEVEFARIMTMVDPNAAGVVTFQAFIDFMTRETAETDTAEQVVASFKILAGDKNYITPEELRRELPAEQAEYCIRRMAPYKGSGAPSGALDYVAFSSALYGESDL
UniProt Q9CZW4: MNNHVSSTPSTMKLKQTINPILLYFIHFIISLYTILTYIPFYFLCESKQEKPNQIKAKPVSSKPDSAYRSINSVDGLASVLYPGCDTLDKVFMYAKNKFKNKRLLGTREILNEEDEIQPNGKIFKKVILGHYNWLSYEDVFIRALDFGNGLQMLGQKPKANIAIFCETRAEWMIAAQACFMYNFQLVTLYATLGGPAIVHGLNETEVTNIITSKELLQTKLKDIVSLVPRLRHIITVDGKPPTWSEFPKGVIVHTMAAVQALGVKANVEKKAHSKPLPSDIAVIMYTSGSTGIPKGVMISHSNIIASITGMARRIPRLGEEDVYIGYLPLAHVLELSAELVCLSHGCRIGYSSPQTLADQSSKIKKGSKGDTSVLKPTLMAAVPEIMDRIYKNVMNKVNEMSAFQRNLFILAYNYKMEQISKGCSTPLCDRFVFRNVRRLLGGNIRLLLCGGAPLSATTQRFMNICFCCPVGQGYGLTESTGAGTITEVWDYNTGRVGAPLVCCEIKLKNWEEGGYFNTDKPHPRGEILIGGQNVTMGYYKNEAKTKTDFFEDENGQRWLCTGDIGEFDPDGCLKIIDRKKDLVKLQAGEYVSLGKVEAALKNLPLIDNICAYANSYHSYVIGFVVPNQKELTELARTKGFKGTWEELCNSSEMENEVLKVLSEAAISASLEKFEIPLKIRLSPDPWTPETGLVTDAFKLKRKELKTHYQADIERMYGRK

This test deals with ACTN3 (mouse (endogenous in C2C12)) (UniProt O88990). As to the kind of experiment: affinity purification with mass spectrometry; immunoprecipitation of ACTN3 from C2C12 (LD fraction and whole cell lysate compared by silver staining), then protein mass spectrometry.

Results are given in words; binding and its absence hold for the method and conditions named. In cells and extracts the contact can be indirect. A yes stands for co-enrichment or nearness to the bait. Other partners may have been found.

For “Acyl-CoA synthetase long chain family member 3 (ACSL3) (from UniProt Q9CZW4 1-720)”, the binding result was “binds”.

B1: lysophosphatidylcholine acyltransferase 1 (LPCAT1) (protein, UniProt Q3TFD2 1-534)
chain: MRLRGRGPRAAPSSSSGAGDARRLAPPGRNPFVHELRLSALQKAQVAFMTLTLFPIRLLFAAFMMLLAWPFALLASLGPPDKEPEQPLALWRKVVDFLLKAIMRTMWFAGGFHRVAVKGRQALPTEAAILTLAPHSSYFDAIPVTMTMSSIVMKAESRDIPIWGTLIRYIRPVFVSRSDQDSRRKTVEEIKRRAQSNGKWPQIMIFPEGTCTNRTCLITFKPGAFIPGVPVQPVVLRYPNKLDTITWTWQGPGALKILWLTLCQFQNQVEIEFLPVYCPSEEEKRNPALYASNVRRVMAKALGVSVTDYTFEDCQLALAEGQLRLPADTCLLEFARLVRGLGLKPENLEKDLDKYSESARMKRGEKIRLPEFAAYLEVPVSDALEDMFSLFDESGGGEIDLREYVVALSVVCRPSQTLATIQLAFKMYGSPEDGSIDEANLSCILKTALGVSELTVTDLFQAIDQEDKGRITFDDFCGFAEMYPDYAEDYLYPDQTHFDSCAQTPPAPTPNGFCIDFSPENSDFGRKNSCKKAD
Take B1: the binding entry was “binds”.
